Assay results: paper PMC6015033
No constants are given. Whether binding was seen depends on the method and setting. Some results given as binding are weak or reduced against the parent protein; the word gives no strength.

Target: T1, MSMEG_6554, chain of the heterodimeric ABC exporter MSMEG_6553/54 (M. smegmatis) (M. smegmatis) (UniProt A0R6H8)
T1 sequence: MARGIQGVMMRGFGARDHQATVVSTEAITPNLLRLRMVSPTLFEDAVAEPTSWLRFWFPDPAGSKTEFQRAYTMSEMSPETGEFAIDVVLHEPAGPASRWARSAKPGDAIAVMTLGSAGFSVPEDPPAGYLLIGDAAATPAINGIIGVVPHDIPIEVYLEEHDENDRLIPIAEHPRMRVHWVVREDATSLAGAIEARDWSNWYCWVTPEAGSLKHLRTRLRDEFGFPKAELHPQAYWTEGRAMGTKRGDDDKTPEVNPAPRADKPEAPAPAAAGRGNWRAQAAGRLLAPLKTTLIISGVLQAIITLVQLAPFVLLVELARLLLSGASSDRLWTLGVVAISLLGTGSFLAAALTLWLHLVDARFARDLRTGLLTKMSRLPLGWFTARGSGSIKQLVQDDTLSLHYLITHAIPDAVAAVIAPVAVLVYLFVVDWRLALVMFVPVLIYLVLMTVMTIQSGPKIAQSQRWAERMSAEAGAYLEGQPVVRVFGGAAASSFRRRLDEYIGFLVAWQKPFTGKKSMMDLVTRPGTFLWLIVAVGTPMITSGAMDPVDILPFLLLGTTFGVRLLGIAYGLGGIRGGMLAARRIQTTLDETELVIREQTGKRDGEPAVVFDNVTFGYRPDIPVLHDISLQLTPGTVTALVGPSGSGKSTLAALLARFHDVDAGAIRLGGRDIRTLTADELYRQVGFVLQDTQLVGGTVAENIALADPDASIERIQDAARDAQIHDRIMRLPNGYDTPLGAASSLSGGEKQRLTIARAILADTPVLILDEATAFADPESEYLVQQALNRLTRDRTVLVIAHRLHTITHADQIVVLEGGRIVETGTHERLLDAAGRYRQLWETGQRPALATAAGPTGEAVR
Assay: SEC; both purified

- binding: binds
B1: MSMEG_6553, chain of the heterodimeric ABC exporter MSMEG_6553/54 (M. smegmatis) (protein, UniProt A0R6H7 1-576)
chain: MIRTLIALVPADKRGTLGLYTVLTVLSVVIRAAGTVLLVPLVAALFGDTPQDAWPWLGWLTAATAAGWIVDTTTSRLGFDLGFAVLDHTQHDVADRMPNIRLDWLTAENTATARAAIASTGPELVGLVVNLLTPLIGAVLLPAAIAVALVAVSPPLGLAALAGVVVLLGAMWASNRLSRKADTVADETNSAFTERIIEFARTQQALRAARRVEPARSLVGDALGAQHGAGVRLLAMQIPGQLLFSLASQLALILLAGMATWLTVRGELSVPEAVAMIVVVARYLEPFTSLSELTPAIESTRGTLGRIRAVLDAPTLTAGDAAPADTKSAPRIEFDCVTFGYGDHPVLDDVSFVLEPGSTTAIVGPSGSGKSTILSLIAGLHQPTEGRVLIDGVDAASLDDESRRAATSVVFQQPYLFDGSIRDNILVGDPGADEDRLAAAVRLARVDELTARLPNGDASKVGEAGAALSGGERQRVSIARALVKPAPVLLVDEATSALDTENEAAVVDALTADLRHRTRVIVAHRLASIRHADRVLFLDGGRIVEDGTIDGLLAAGGRFDEFWRRQHEAADWQITH
